Out of some 410,000 compounds screened, about 18,000 (4.4%) were called active. Inconclusive results, whose numbers are uncertain, are shown with a selection of clear calls. Rule as the data show it: active = activity change below about -60%; inconclusive = no clear call, values can overlap the other calls; inactive = above about -39%.
Assay: qHTS Assay for inhibitors of the human cytomegalovirus (HCMV)
Details: HFF cells, HCMV-luciferase reporter, 72 h; at 57.5 µM; stronger effect = lower value
Outline: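 Steps: HFFs plated, 16 h 37C; compounds added; HCMV-luciferase added to MOI 1 PFU/cell; 72 h 37C; OneGlo reagent, 5 min room temperature; luminescence read, normalized to controls.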
In the case of `COc1ccc(N2CCN(C(=O)Nc3ccccc3Cl)CC2)cc1`, the activity change, negative = inhibition is reported as inconclusive: -55.7%.
For `Clc1ccccc1-c1nnc(SCc2nc(-c3ccccc3)no2)n1-c1ccccc1`, the activity change, negative = inhibition was inconclusive: -55.2%.
For `CCc1cccc2c(C(=O)CN3C(=O)NC4(CCc5ccccc54)C3=O)c[nH]c12` (centres undefined), the activity change, negative = inhibition was active: -69.4%.
In the case of `CC/C(=C/c1ccccc1)c1cccc2[nH]c3c(OC)cccc3c12`, the activity change, negative = inhibition is reported as inconclusive: -55.3%.
With `Cc1cccc(NC(=O)NCCc2ccc(Cl)cc2)c1` the activity change, negative = inhibition was inconclusive: -47%.
In the case of `Cc1ccc(C(=O)/C=C/Nc2cccc(O)c2)cc1`, the activity change, negative = inhibition is reported as inactive: 77%.
With `Cc1nc(NC(C)C)c2oc3ccccc3c2n1` the activity change, negative = inhibition was inconclusive: -40.7%.
With `Cc1noc2ncnc(NCc3ccc(Cl)cc3)c12` the activity change, negative = inhibition was inconclusive: -50%.
For `O=C(NC(=S)N1CCN(C2CCCCC2)CC1)c1ccccc1`, the activity change, negative = inhibition was inconclusive: -46.2%.
In the case of `CCCCC(=O)Oc1ccccc1C1SCc2cc(C)c(C)cc2CS1`, the activity change, negative = inhibition is reported as inconclusive: -40.8%.
With `CCC(C)(C)C1CCc2[nH]nc(C(=O)NC(C)C)c2C1` (centres undefined) the activity change, negative = inhibition was inconclusive: -55%.
With `Cc1nc2sc3c(c2c(=O)n1/N=C/c1ccco1)CCCC3` the activity change, negative = inhibition was inconclusive: -42%.
In the case of `Cc1c(C(=O)N2CCCCC2)sc(NC(=O)c2ccco2)c1C#N`, the activity change, negative = inhibition is reported as inconclusive: -49.2%.
In the case of `CCN1CCN(c2ccc(NC(=O)COc3ccc(Cl)cc3C)cc2)CC1`, the activity change, negative = inhibition is reported as inconclusive: -41.8%.
With `CCOC(=O)c1sc2nc(C)nc(Nc3ccc(OC)cc3)c2c1C` the activity change, negative = inhibition was active: -67.2%.
For `Cc1c(C)n(Cc2ccccc2)c2ncnc(NN)c12`, the activity change, negative = inhibition was active: -73.4%.
With `O=C(N/N=C/c1ccco1)c1cc(-c2ccc3ccccc3c2)n[nH]1` the activity change, negative = inhibition was inconclusive: -48.3%.
In the case of `O=C(CN1CCN(S(=O)(=O)c2ccc(Cl)c(Cl)c2)CC1)N1CCCC1`, the activity change, negative = inhibition is reported as inactive: -10.6%.
For `Cc1ccc(Nc2nc(N/N=C\c3ccc4c(c3)OCO4)nc(N3CCOCC3)n2)cc1`, the activity change, negative = inhibition was inconclusive: -52.3%.
With `COc1ccc(Nc2c3c(nc4ccc(NC(=O)c5cc(Cl)ccc5OC)cc24)CCCC3)cc1OC` the activity change, negative = inhibition was active: -108%.
With `COCCN(C(=O)c1cc(-c2ccco2)nc2ccccc12)c1c(N)n(Cc2ccccc2)c(=O)[nH]c1=O` the activity change, negative = inhibition was active: -69.1%.
With `COc1ccc(N=C2SC(C(=O)Nc3ccc(C(=O)O)cc3)CC(=O)N2Cc2cccs2)cc1` (centres undefined) the activity change, negative = inhibition was inconclusive: -56.6%.
For `Nc1nc2ccccc2n1/N=C/c1cccnc1`, the activity change, negative = inhibition was inactive: 21.3%.
In the case of `O=C1C(=NO)CCCc2ccccc21`, the activity change, negative = inhibition is reported as inconclusive: -57.9%.
For `O=C(CSc1nc2ccccc2c(=O)n1CCCO)N1CCc2ccccc21`, the activity change, negative = inhibition was inconclusive: -56.3%.
In the case of `CCOc1ccc(C(=O)Nc2ccc(C(=O)OCc3cc(=O)n4c(C)csc4n3)cc2)cc1`, the activity change, negative = inhibition is reported as inconclusive: -54.1%.
With `Cc1ccc(NC(=O)/C(=C/c2ccco2)c2ccccc2)c(C)c1` the activity change, negative = inhibition was inconclusive: -43.2%.
With `CCC(=O)Nc1ccc(-c2nc3ncccc3o2)cc1C` the activity change, negative = inhibition was inactive: 81.7%.
In the case of `COCCNC(=O)CCCn1c(SCc2ccccc2C)nc2c(sc3ccccc32)c1=O`, the activity change, negative = inhibition is reported as inconclusive: -58.2%.
For `Cc1nc(NC(=O)c2ccco2)sc1C(=O)O`, the activity change, negative = inhibition was inactive: 10.2%.
With `CN(CCc1ccccn1)C(=O)c1ccc(OC(F)(F)F)cc1` the activity change, negative = inhibition was inconclusive: -44.9%.
For `Cc1cc(C)c(C(=O)COC(=O)C2CCN(c3ccc(C(F)(F)F)cn3)CC2)c(C)c1`, the activity change, negative = inhibition was inactive: 51.7%.
For `C/C(CC(=O)Nc1ccc(Cl)cc1Cl)=N\NC(=O)c1ccco1`, the activity change, negative = inhibition was inconclusive: -50.8%.
For `Cc1ccc(C(=O)N2CCCC(CCC(=O)N3CCN(c4ccccn4)CC3)C2)cn1` (centres undefined), the activity change, negative = inhibition was inconclusive: -49.3%.
In the case of `Cc1cc(Cl)ccc1OCC(=O)OCC(=O)Nc1ccc(Cl)cn1`, the activity change, negative = inhibition is reported as inconclusive: -45.5%.
For `Cc1ccccc1Nc1nc(N)[nH]c(=O)c1N=O`, the activity change, negative = inhibition was inconclusive: -40.1%.
With `COc1ccc(OC)c(C(=O)NC(CC(N)=O)c2ccc(NCc3ccc(F)c(F)c3)c([N+](=O)[O-])c2)c1` (centres undefined) the activity change, negative = inhibition was inactive: 29.6%.
For `O=C(Nc1ccc(N2CCOCC2)cc1)c1cccc(S(=O)(=O)N2CCCCCC2)c1`, the activity change, negative = inhibition was inconclusive: -43.2%.
In the case of `CC(OC(=O)CCC(=O)c1ccccc1)C(=O)Nc1ccc(F)cc1` (centres undefined), the activity change, negative = inhibition is reported as inconclusive: -51.3%.
For `CCOC(=O)N1CCN(C(=O)C2CCN(S(=O)(=O)c3cc(C)ccc3OC)CC2)CC1`, the activity change, negative = inhibition was inconclusive: -46.5%.
For `O=C(CC(O)(C(F)(F)F)C(F)(F)F)Nc1ccc(Cl)c(Cl)c1`, the activity change, negative = inhibition was active: -103%.
With `O=C(c1ccsc1)N1CCCC(Nc2cccc(F)c2)C1` (centres undefined) the activity change, negative = inhibition was inconclusive: -48.9%.
For `Cc1ccccc1OCCSc1nc2ccc(NC(=O)c3ccco3)cc2s1`, the activity change, negative = inhibition was inconclusive: -54.3%.
With `Cc1ccc(NC(=O)CN2C(=O)c3ccccc3Sc3ccc(C(=O)N4CCOCC4)cc32)cc1C` the activity change, negative = inhibition was inconclusive: -44.7%.

Source: PubChem BioAssay AID1259415 (National Center for Advancing Translational Sciences (NCATS), 2018)
% is scaled to controls: 0 for no effect and ±100 for the full control effect.
